In article PMC10307627:
No constants are given. Whether binding was seen depends on the method and setting. In cells and extracts the contact can be indirect. Some results given as binding are weak or reduced against the parent protein; the word gives no strength.

By UniProt entry, the sequences of proteins in these tests, tags left out. Residues count along the entry.
UniProt Q03431, residues 27-593: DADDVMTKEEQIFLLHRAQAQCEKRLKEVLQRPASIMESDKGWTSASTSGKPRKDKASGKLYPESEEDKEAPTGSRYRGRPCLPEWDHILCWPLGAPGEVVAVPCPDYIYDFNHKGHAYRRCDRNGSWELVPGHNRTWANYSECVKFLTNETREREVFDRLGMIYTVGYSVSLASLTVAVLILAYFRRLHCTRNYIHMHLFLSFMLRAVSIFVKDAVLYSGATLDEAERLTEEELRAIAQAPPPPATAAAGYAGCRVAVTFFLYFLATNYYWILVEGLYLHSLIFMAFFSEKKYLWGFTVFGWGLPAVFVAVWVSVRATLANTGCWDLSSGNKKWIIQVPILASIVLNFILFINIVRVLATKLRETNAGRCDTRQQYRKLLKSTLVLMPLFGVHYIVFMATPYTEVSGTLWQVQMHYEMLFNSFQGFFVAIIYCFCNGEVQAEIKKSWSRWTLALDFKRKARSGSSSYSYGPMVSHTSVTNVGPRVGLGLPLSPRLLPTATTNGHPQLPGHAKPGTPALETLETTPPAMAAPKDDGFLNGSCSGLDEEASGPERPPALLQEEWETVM
UniProt P32121: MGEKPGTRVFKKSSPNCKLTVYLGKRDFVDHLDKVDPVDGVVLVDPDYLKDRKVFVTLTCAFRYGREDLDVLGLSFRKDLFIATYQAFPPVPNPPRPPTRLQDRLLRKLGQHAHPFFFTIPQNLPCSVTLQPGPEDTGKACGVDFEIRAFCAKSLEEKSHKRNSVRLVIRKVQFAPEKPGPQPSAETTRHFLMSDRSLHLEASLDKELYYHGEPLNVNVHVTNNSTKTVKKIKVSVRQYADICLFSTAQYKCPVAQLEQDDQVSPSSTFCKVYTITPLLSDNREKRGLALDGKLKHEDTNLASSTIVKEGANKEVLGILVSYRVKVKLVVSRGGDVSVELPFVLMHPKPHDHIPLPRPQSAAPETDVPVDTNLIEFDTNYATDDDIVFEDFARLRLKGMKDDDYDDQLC

Target: C-terminal small BiT-fused PTH1R (PTH1R-Sm) (human) (UniProt Q03431)
Assay: split reporter; NanoBiT β-arrestin recruitment assay in transfected cells, Lg-β-arrestin 1 or 2 with PTH1R-Sm, stimulation with PTH, room temperature, luminescence 13–15 min after ligand

binding: binds
Substance: N-terminal large BiT-fused β-arrestin 2 (Lg-β-arrestin 2) (from UniProt P32121 1-409)
